In this experiment the target is T1, OsWUS (rice (Oryza sativa L.)) (UniProt Q7XM13).
T1 sequence: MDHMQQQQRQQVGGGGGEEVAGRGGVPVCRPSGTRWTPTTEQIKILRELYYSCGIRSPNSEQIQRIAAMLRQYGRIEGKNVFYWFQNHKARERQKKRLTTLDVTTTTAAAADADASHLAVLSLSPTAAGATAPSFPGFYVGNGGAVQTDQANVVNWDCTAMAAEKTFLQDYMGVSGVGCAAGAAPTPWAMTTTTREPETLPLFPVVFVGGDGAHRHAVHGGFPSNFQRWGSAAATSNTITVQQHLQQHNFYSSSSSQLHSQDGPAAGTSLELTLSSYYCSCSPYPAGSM
In words: two-hybrid; in yeast cells (Supplementary Figure S3); constructs and orientation not told.

These are yes or no findings as the source states them, for the method shown. Binding can be weak; no strength is given.

The text below walks through data of article PMC7084607.

For OsPUB4 (rice (Oryza sativa L.)), the binding entry is recorded as “binds”.
